Experimental data: patent US6815421B1 (Osteopharm Inc., priority 2001, dated 2004)

Assay: peptide made by a vendor
Details: whole synthesis

Xaa1-Thr-GIn-Glu-His-Thr-Ala-Glu-Cys-Xaa10, where Xaa1 is N-acetyl arginine and Xaa10 is lysinamide
final HPLC purity: at least 95% pure
